{"source": "PubChem BioAssay AID1347076", "about": "(National Center for Advancing Translational Sciences (NCATS), 2019)", "note": "About 13,000 (3.2%) of roughly 400,000 compounds were called active. Inconclusive means that the source gave no clear call. Such entries were picked first, then a sample of the others. The call rests on the fitted dose curve; in most records, active means well fitted cell-killing curve with a large enough effect; inconclusive means small, poorly fitted or top-dose-only effect, or effect the other way; inactive means flat fitted curve, though single readings scatter. Potencies beside an inconclusive call are fits to weak or partial responses and may not hold up. On the % scale 0 is the no-effect control and ±100 the full control effect; potency means the concentration at half of the fitted maximal effect."}
{"assay": "qHTS assay for MDR1-selective chemotherapeutics: Primary screen using the drug-selected MDR subline cells KB-V1; further: nearly all actives have a fitted effect of over 60% in size", "conditions": "KB-V1 MDR cells viability, CellTiter-Glo, 72 h; activity change, negative = cytotoxicity: at 46.1 µM (top of the series)", "in_short": "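Luminescent ATP read-out (CellTiter-Glo, 10 min) measures survival of drug-selected KB-V1 MDR cells after 72 h, 37 degrees C compound exposure. Medium: phenol-red-free DMEM, 10% FBS. Values from fitted concentration-response curves.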"}
{"smiles": "O=[N+]([O-])c1ccc(Sc2ccncn2)c([N+](=O)[O-])c1", "Potency": "inconclusive: 29.1 µM [cytotoxic, single point]"}
{"smiles": "CCOc1ccc(CNC(=O)CCn2c(=O)oc3ccccc32)cc1", "Potency": "active: 23.1 µM"}
{"smiles": "Cn1c(N)c(C(=O)COC(=O)COc2ccc(Cl)cc2)c(=O)n(C)c1=O", "activity change, negative = cytotoxicity": "inconclusive: 41.9%"}
{"smiles": "Fc1ccc(CCNC(=S)Nc2ccc(F)c(Cl)c2)cc1", "Potency": "inconclusive: 18.4 µM [cytotoxic, single point]"}
{"smiles": "COc1ccc(C(=O)NC(=O)COC(=O)c2ccc(C)o2)cc1", "Potency": "inconclusive: 18.4 µM [rising, single point]"}
{"smiles": "CCOC(=O)C(=CNc1cc(C)ccc1C)C(=O)OCC", "Potency": "active: 13 µM"}
{"smiles": "O=S(=O)(CCn1cccc1)CCn1cccc1", "Potency": "inactive"}
{"smiles": "O=C(CC12CC3CC(CC(C3)C1)C2)NC(=S)N1CCCCC1", "Potency": "inconclusive: 20.6 µM [cytotoxic, single point]"}
{"smiles": "Cc1cc(NC(=O)CCC(=O)N(c2ccc(F)cc2)C(C(=O)NC2CCCC2)c2ccncc2)no1", "note": "(stereo unspecified)", "Potency": "inactive"}
{"smiles": "CCN(CC)S(=O)(=O)c1ccc2oc(SCC(=O)Nc3cc(C)on3)nc2c1", "Potency": "active: 3.66 µM"}
{"smiles": "COc1ccc(CNC(=O)CCC(=O)c2ccc(C)cc2)cc1OC", "Potency": "inactive"}
{"smiles": "CC(C(=O)NC1CCCC1)n1c(C2CCCC2)nc2ccccc21", "note": "(stereo unspecified)", "Potency": "inconclusive: 10.3 µM [cytotoxic, partial curve, poor fit]"}
{"smiles": "C=CCNC(=O)/C(C#N)=C/c1ccc(OS(=O)(=O)c2ccc(C)cc2)c(OC)c1", "Potency": "inconclusive: 32.6 µM [cytotoxic, partial curve, poor fit]"}
{"smiles": "COc1ccc(C2N(c3cc(Cl)ccc3OC)C(=O)C3CCCN32)cc1", "note": "(stereo unspecified)", "Potency": "inactive"}
{"smiles": "COc1ccccc1NC(=O)COn1nnc2ccc(S(=O)(=O)N3CCOCC3)cc21", "Potency": "inconclusive: 20.6 µM [cytotoxic, single point]"}
{"smiles": "CC(=O)NCCc1ccc(S(=O)(=O)Nc2ccc(C)c(S(=O)(=O)N3CCOCC3)c2)cc1", "Potency": "inconclusive: 29.1 µM [cytotoxic, single point]"}
{"smiles": "Cc1cc(C)cc(NS(=O)(=O)c2ccc(NC(=O)c3ccccc3C(=O)O)cc2)c1", "Potency": "inactive"}
{"smiles": "CN(c1ccc(OCC(=O)OCC(=O)Nc2ccc(OC(F)F)cc2)cc1)S(=O)(=O)c1cccs1", "Potency": "inactive"}
{"smiles": "C=CCN(Cc1nc(-c2cc(OC)ccc2OC)oc1C)C1CCS(=O)(=O)C1", "note": "(stereo unspecified)", "Potency": "inconclusive: 29.1 µM [cytotoxic, single point]"}
{"smiles": "COc1ccc(OC)c(NC(=O)Cn2nc3c(cc2=O)CCCC3)c1", "Potency": "inactive"}
{"smiles": "COc1ccc2cc3cc(C(=O)NCc4cccs4)oc3nc2c1", "Potency": "inconclusive: 1.84 µM [cytotoxic, full curve]"}
